Assay results from the supplement of paper PMC8728848.
The list shows a part of the results.

Tests used:
Experiment in all cases: glycan array binding signal (z-score within array); higher = stronger binding
Settings in all cases: glycan notation: IUPAC condensed, linker removed
[1] = target: GlcNAc(b1-3)Gal(b1-4)GlcNAc(b1-3)Gal(b1-4)GlcNAc(b1-2)Man(a1-3)[GlcNAc(b1-3)Gal(b1-4)GlcNAc(b1-3)Gal(b1-4)GlcNAc(b1-2)Man(a1-6)]Man(b1-4)GlcNAc(b1-4)[Fuc(a1-6)]GlcNAc
Procedure, shortened: (§1)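 The Consortium for Functional Glycomics database supplied 3228 glycan arrays, of which those lacking an available protein sequence were dropped. The binding signal, a within-array Z-score, was averaged across arrays of the same protein sequence and across linkers. Negative scores can be read as non-binding.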

[2] = target: GlcNAc(b1-3)Gal(b1-4)GlcNAc(b1-3)Gal(b1-4)GlcNAc(b1-2)[GlcNAc(b1-3)Gal(b1-4)GlcNAc(b1-3)Gal(b1-4)GlcNAc(b1-6)]Man(a1-6)[GlcNAc(b1-3)Gal(b1-4)GlcNAc(b1-3)Gal(b1-4)GlcNAc(b1-2)Man(a1-3)]Man(b1-4)GlcNAc(b1-4)[Fuc(a1-6)]GlcNAc
Procedure, shortened: as §1

[3] = target: GlcNAc(b1-3)Gal(b1-4)GlcNAc(b1-3)Gal(b1-4)GlcNAc(b1-3)Gal(b1-4)GlcNAc(b1-2)Man(a1-3)[GlcNAc(b1-3)Gal(b1-4)GlcNAc(b1-3)Gal(b1-4)GlcNAc(b1-3)Gal(b1-4)GlcNAc(b1-2)Man(a1-6)]Man(b1-4)GlcNAc(b1-4)GlcNAc
Procedure, shortened: as §1

[4] = target: GlcNAc(b1-3)Gal(b1-4)GlcNAc(b1-3)Gal(b1-4)GlcNAc(b1-3)Gal(b1-4)GlcNAc(b1-2)Man(a1-3)[GlcNAc(b1-3)Gal(b1-4)GlcNAc(b1-3)Gal(b1-4)GlcNAc(b1-3)Gal(b1-4)GlcNAc(b1-2)Man(a1-6)]Man(b1-4)GlcNAc(b1-4)[Fuc(a1-6)]GlcNAc
Procedure, shortened: as §1

[5] = target: GlcNAc(b1-3)Gal(b1-4)GlcNAc(b1-3)Gal(b1-4)GlcNAc(b1-3)Gal(b1-4)GlcNAc(b1-2)[GlcNAc(b1-3)Gal(b1-4)GlcNAc(b1-3)Gal(b1-4)GlcNAc(b1-3)Gal(b1-4)GlcNAc(b1-6)]Man(a1-6)[GlcNAc(b1-3)Gal(b1-4)GlcNAc(b1-3)Gal(b1-4)GlcNAc(b1-3)Gal(b1-4)GlcNAc(b1-2)Man(a1-3)]Man(b1-4)GlcNAc(b1-4)[Fuc(a1-6)]GlcNAc
Procedure, shortened: as §1

[6] = target: GlcNAc(b1-3)Gal(b1-4)GlcNAc(b1-3)Gal(b1-4)GlcNAc(b1-3)Gal(b1-4)GlcNAc(b1-3)Gal(b1-4)GlcNAc(b1-2)Man(a1-3)[GlcNAc(b1-3)Gal(b1-4)GlcNAc(b1-3)Gal(b1-4)GlcNAc(b1-3)Gal(b1-4)GlcNAc(b1-3)Gal(b1-4)GlcNAc(b1-2)Man(a1-6)]Man(b1-4)GlcNAc(b1-4)GlcNAc
Procedure, shortened: as §1

[7] = target: GlcNAc(b1-3)Gal(b1-4)GlcNAc(b1-3)Gal(b1-4)GlcNAc(b1-3)Gal(b1-4)GlcNAc(b1-3)Gal(b1-4)GlcNAc(b1-2)Man(a1-3)[GlcNAc(b1-3)Gal(b1-4)GlcNAc(b1-3)Gal(b1-4)GlcNAc(b1-3)Gal(b1-4)GlcNAc(b1-3)Gal(b1-4)GlcNAc(b1-2)Man(a1-6)]Man(b1-4)GlcNAc(b1-4)[Fuc(a1-6)]GlcNAc
Procedure, shortened: as §1

[8] = target: GlcNAc(b1-3)Gal(b1-4)GlcNAc(b1-3)Gal(b1-4)GlcNAc(b1-3)Gal(b1-4)GlcNAc(b1-3)Gal(b1-4)GlcNAc(b1-2)[GlcNAc(b1-3)Gal(b1-4)GlcNAc(b1-3)Gal(b1-4)GlcNAc(b1-3)Gal(b1-4)GlcNAc(b1-3)Gal(b1-4)GlcNAc(b1-6)]Man(a1-6)[GlcNAc(b1-3)Gal(b1-4)GlcNAc(b1-3)Gal(b1-4)GlcNAc(b1-3)Gal(b1-4)GlcNAc(b1-3)Gal(b1-4)GlcNAc(b1-2)Man(a1-3)]Man(b1-4)GlcNAc(b1-4)[Fuc(a1-6)]GlcNAc
Procedure, shortened: as §1

[9] = target: GlcNAc(b1-3)Gal(b1-4)GlcNAc(b1-3)Gal(b1-4)GlcNAc(b1-3)GalNAc
Procedure, shortened: as §1

[10] = target: GlcNAc(b1-3)Gal(b1-4)GlcNAc(b1-3)GalNAc
Procedure, shortened: as §1

[11] = target: GlcNAc(b1-3)Gal(b1-4)GlcNAc(b1-3)[GlcNAc(b1-3)Gal(b1-4)GlcNAc(b1-3)]GalNAc
Procedure, shortened: as §1

[12] = target: GlcNAc(b1-3)Gal(b1-4)GlcNAc(b1-6)[Gal(b1-3)]GalNAc
Procedure, shortened: as §1

[13] = target: GlcNAc(b1-3)Gal(b1-4)GlcNAc(b1-6)[GlcNAc(b1-3)Gal(b1-3)]GalNAc
Procedure, shortened: as §1

[14] = target: GlcNAc(b1-3)Gal(b1-4)GlcNAc(b1-6)[GlcNAc(b1-3)]Gal(b1-4)GlcNAc
Procedure, shortened: as §1

GlcNAc(b1-3)GalNAc = target: GlcNAc(b1-3)GalNAc
Procedure, shortened: as §1

GlcNAc(b1-3)Man = target: GlcNAc(b1-3)Man
Procedure, shortened: as §1

[15] = target: GlcNAc(b1-3)[GlcNAc(b1-4)][GlcNAc(b1-6)]GlcNAc
Procedure, shortened: as §1

[16] = target: GlcNAc(b1-3)[GlcNAc(b1-6)]Gal(b1-4)GlcNAc
Procedure, shortened: as §1

[17] = target: GlcNAc(b1-3)[GlcNAc(b1-6)]GalNAc
Procedure, shortened: as §1

[18] = target: GlcNAc(b1-4)Gal(b1-4)GlcNAc
Procedure, shortened: as §1

GlcNAc(b1-4)GlcNAc = target: GlcNAc(b1-4)GlcNAc
Procedure, shortened: as §1

[19] = target: GlcNAc(b1-4)GlcNAc(b1-4)GlcNAc
Procedure, shortened: as §1

[20] = target: GlcNAc(b1-4)GlcNAc(b1-4)GlcNAc(b1-4)GlcNAc(b1-4)GlcNAc
Procedure, shortened: as §1

[21] = target: GlcNAc(b1-4)GlcNAc(b1-4)GlcNAc(b1-4)GlcNAc(b1-4)GlcNAc(b1-4)GlcNAc
Procedure, shortened: as §1

[22] = target: GlcNAc(b1-4)[GlcNAc(b1-6)]GalNAc
Procedure, shortened: as §1

[23] = target: GlcNAc(b1-6)Gal(b1-4)GlcNAc
Procedure, shortened: as §1

GlcNAc(b1-6)GalNAc = target: GlcNAc(b1-6)GalNAc
Procedure, shortened: as §1

GlcNAc3Prop(b1-4)GlcNAc = target: GlcNAc3Prop(b1-4)GlcNAc
Procedure, shortened: as §1

[24] = target: GlcNAc6S(b1-3)Gal(b1-4)GlcNAc
Procedure, shortened: as §1

Kdn(a2-3)Gal(b1-3)GalNAc = target: Kdn(a2-3)Gal(b1-3)GalNAc
Procedure, shortened: as §1

Kdn(a2-3)Gal(b1-3)GlcNAc = target: Kdn(a2-3)Gal(b1-3)GlcNAc
Procedure, shortened: as §1

Kdn(a2-3)Gal(b1-4)Glc = target: Kdn(a2-3)Gal(b1-4)Glc
Procedure, shortened: as §1

Kdn(a2-3)Gal(b1-4)GlcNAc = target: Kdn(a2-3)Gal(b1-4)GlcNAc
Procedure, shortened: as §1

[25] = target: Kdn(a2-3)Gal(b1-4)[Fuc(a1-3)]GlcNAc
Procedure, shortened: as §1

Kdn(a2-6)Gal(b1-4)GlcNAc = target: Kdn(a2-6)Gal(b1-4)GlcNAc
Procedure, shortened: as §1

[26] = target: Man(a1-2)Man(a1-2)Man(a1-3)Man
Procedure, shortened: as §1

[27] = target: Man(a1-2)Man(a1-2)Man(a1-6)[Man(a1-3)]Man
Procedure, shortened: as §1

Man(a1-2)Man(a1-3)Man = target: Man(a1-2)Man(a1-3)Man
Procedure, shortened: as §1

B1: Gal 12 (Homo sapiens), Q96DT0 (protein)
chain: MSQPSGGRAPGTRIYSWSCPTVMSPGEKLDPIPDSFILQPPVFHPVVPYVTTIFGGLHAGKMVMLQGVVPLDAHRFQVDFQCGCSLCPRPDIAFHFNPRFHTTKPHVICNTLHGGRWQREARWPHLALRRGSSFLILFLFGNEEVKVSVNGQHFLHFRYRLPLSHVDTLGIFGDILVEAVGFLNINPFVEGSREYPAGHPFLLMSPRLEVPCSHALPQGLSPGQVIIVRGLVLQEPKHFTVSLRDQAAHAPVTLRASFADRTLAWISRWGQKKLISAPFLFYPQRFFEVLLLFQEGGLKLALNGQGLGATSMNQQALEQLRELRISGSVQLYCVHS
Question: What does the source list for B1?
Answer: glycan array binding signal (z-score) [1]: 0.919; glycan array binding signal (z-score) [2]: 0.115; glycan array binding signal (z-score) [3]: 0.01; glycan array binding signal (z-score) [4]: 0.526; glycan array binding signal (z-score) [5]: -0.532; glycan array binding signal (z-score) [6]: -0.232; glycan array binding signal (z-score) [7]: -0.857; glycan array binding signal (z-score) [8]: 0.411; glycan array binding signal (z-score) [9]: -1.01; glycan array binding signal (z-score) [10]: 1.33; glycan array binding signal (z-score) [11]: 0.083; glycan array binding signal (z-score) [12]: -1.26; glycan array binding signal (z-score) [13]: 0.418; glycan array binding signal (z-score) [14]: -0.202; glycan array binding signal (z-score) (GlcNAc(b1-3)GalNAc): -0.05; glycan array binding signal (z-score) (GlcNAc(b1-3)Man): -0.675; glycan array binding signal (z-score) [15]: -0.381; glycan array binding signal (z-score) [16]: -0.57; glycan array binding signal (z-score) [17]: 0.229; glycan array binding signal (z-score) [18]: -0.381; glycan array binding signal (z-score) (GlcNAc(b1-4)GlcNAc): -0.245; glycan array binding signal (z-score) [19]: -0.755; glycan array binding signal (z-score) [20]: -0.139; glycan array binding signal (z-score) [21]: -0.121; glycan array binding signal (z-score) [22]: -0.179; glycan array binding signal (z-score) [23]: -0.449; glycan array binding signal (z-score) (GlcNAc(b1-6)GalNAc): -0.381; glycan array binding signal (z-score) (GlcNAc3Prop(b1-4)GlcNAc): -0.523; glycan array binding signal (z-score) [24]: -0.81; glycan array binding signal (z-score) (Kdn(a2-3)Gal(b1-3)GalNAc): 0.39; glycan array binding signal (z-score) (Kdn(a2-3)Gal(b1-3)GlcNAc): -0.015; glycan array binding signal (z-score) (Kdn(a2-3)Gal(b1-4)Glc): -0.515; glycan array binding signal (z-score) (Kdn(a2-3)Gal(b1-4)GlcNAc): 0.085; glycan array binding signal (z-score) [25]: 0.163; glycan array binding signal (z-score) (Kdn(a2-6)Gal(b1-4)GlcNAc): 0.085; glycan array binding signal (z-score) [26]: 0.037; glycan array binding signal (z-score) [27]: -0.598; glycan array binding signal (z-score) (Man(a1-2)Man(a1-3)Man): -0.449
